Test results as given in the supplement of paper PMC12889115.
The list shows a part of the results. These are raw signals, not scaled to a control.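 First-pass screen: polymyxin B was added at a level that permeabilizes the Salmonella outer membrane while sparing the inner membrane. DMSO wells, with and without polymyxin B, defined maximum growth. Because plates differed from one another, each plate's data were ranked separately and the compounds with the lowest OD600 were carried forward as hits.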

Test system: Salmonella enterica serovar Typhimurium SL1344
Experiment: bacterial growth OD600 after 18 h with compound and polymyxin B; higher = more bacterial growth (less inhibition)
Conditions: 50 µM, Mueller-Hinton broth

| Structure (SMILES) | bacterial growth OD600 (polymyxin B 1 µg/mL) | bacterial growth OD600 (polymyxin B 0.75 µg/mL) |
| --- | --- | --- |
| COc1cccc(OCc2nc(C(=O)N(C)Cc3csc(C)n3)co2)c1 | 1.01 | – |
| CCOc1ccc2nc(N3CCCC(C(=O)NCCCn4cccn4)C3)nc(C)c2c1 (stereo unspecified) | – | 0.44 |
| COCCN(C(=O)c1csc2nc(-c3cccc(Cl)c3)cn12)C(C)C | – | 0.681 |
| Cc1nc(N2CCC(C(=O)N(C)Cc3ccsc3)CC2)nc2ccccc12 | – | 0.777 |
| CC(C)c1ccc(NC2CCCN(C(=O)c3ccc4c(c3)OCO4)C2)cc1 (stereo unspecified) | 0.005 | – |
| C=C(C)CNc1ccc(C(=O)N2CCC(Cn3cccn3)CC2)cn1 | 1.2 | – |
| CCOc1cc(CN2CCC(C(Cc3ccccc3)N(C(=O)c3ccco3)C3CC3)CC2)ccc1O (stereo unspecified) | – | 0.878 |
| COCCN1CCN(Cc2nc(Cc3ccc(OC)c(OC)c3)no2)CC1 | 0.821 | – |
| CC#CC(=O)N1CCCC(CCc2ccc(OC)cc2)C1 (stereo unspecified) | – | 0.566 |
| Cc1ccccc1Oc1ncccc1CNC(=O)c1ccnn1C | – | 0.916 |
| Cc1c(C(C)NC2CCN(C(C)C)CC2)cnn1-c1ccc(F)cc1F (stereo unspecified) | 0.914 | – |
| O=C(CCC1CCN(C(=O)[C@H]2C[C@@H]3C=C[C@H]2C3)CC1)N1CCC(Cc2ccccc2)CC1 | 1.04 | – |
| COC(=O)CCC(=O)N1CCC(C2CCN(CCc3ccccc3)C2)CC1 (stereo unspecified) | – | 0.733 |
| O=C1N(Cc2cccc(F)c2F)CCCC1(O)CNC1CCCCC1 (stereo unspecified) | 0.992 | – |
| CCCNC(=O)N1CCCC(N2CCN(Cc3ccc4c(c3)OCO4)CC2)C1 (stereo unspecified) | 0.872 | – |
| COCCN(CC1CCCN(C2Cc3ccccc3C2)C1)C(=O)CN1CCCCC1 (stereo unspecified) | 0.79 | – |
| Cc1ccc(C)c(OCc2cc(C(=O)NCc3n[nH]c4c3CCC4)no2)c1 | 0.002 | – |
| CN(Cc1nc2cc(Cl)ccc2[nH]1)Cc1nc(-c2ccc3c(c2)OCO3)no1 | 0.761 | – |
| CC1=C(C(=O)N2CCc3onc(-c4ccc5c(c4)OCO5)c3C2)OCCO1 | – | 0.654 |
| O=C(CCc1cnccn1)N1CCCC(CCc2ccc(F)c(F)c2)C1 (stereo unspecified) | – | 0.743 |
| CN(Cc1nccs1)c1nc2nonc2nc1N1CCCCC1 | – | 0.864 |

Quoted at random: two records from the list.

| Structure (SMILES) | bacterial growth OD600 (polymyxin B 1 µg/mL) | bacterial growth OD600 (polymyxin B 0.75 µg/mL) |
| --- | --- | --- |
| Cc1ccccc1Oc1ncccc1CNC(=O)c1ccnn1C | – | 0.916 |
| CCCNC(=O)N1CCCC(N2CCN(Cc3ccc4c(c3)OCO4)CC2)C1 (stereo unspecified) | 0.872 | – |
